Assay results reported in paper PMC10742089.
These are yes or no findings as the source states them, for the method shown. Binding seen in cells or lysates may run through a third protein. Here binding means that the protein was enriched with, or labelled near, the bait; the list need not be complete.

Chains of the proteins cited; added tags and fusions are not shown.
UniProt P18754: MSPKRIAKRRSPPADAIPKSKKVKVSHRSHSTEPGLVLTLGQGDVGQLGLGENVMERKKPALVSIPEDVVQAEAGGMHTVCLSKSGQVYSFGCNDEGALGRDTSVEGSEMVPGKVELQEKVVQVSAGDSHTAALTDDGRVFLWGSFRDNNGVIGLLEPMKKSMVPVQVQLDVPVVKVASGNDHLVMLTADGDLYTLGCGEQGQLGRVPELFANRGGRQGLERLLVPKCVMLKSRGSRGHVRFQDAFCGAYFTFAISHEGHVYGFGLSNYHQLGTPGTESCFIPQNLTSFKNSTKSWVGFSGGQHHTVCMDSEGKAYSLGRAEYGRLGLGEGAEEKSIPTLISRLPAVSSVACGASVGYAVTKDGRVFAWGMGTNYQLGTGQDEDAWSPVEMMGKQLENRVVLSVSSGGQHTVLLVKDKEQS
UniProt Q13242: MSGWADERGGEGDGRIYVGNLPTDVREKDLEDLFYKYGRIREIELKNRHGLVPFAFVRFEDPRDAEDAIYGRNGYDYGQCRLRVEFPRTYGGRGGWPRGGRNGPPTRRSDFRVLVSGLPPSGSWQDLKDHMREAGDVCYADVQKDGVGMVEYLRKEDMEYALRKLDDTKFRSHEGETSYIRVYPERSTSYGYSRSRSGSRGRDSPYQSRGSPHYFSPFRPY
UniProt Q02880: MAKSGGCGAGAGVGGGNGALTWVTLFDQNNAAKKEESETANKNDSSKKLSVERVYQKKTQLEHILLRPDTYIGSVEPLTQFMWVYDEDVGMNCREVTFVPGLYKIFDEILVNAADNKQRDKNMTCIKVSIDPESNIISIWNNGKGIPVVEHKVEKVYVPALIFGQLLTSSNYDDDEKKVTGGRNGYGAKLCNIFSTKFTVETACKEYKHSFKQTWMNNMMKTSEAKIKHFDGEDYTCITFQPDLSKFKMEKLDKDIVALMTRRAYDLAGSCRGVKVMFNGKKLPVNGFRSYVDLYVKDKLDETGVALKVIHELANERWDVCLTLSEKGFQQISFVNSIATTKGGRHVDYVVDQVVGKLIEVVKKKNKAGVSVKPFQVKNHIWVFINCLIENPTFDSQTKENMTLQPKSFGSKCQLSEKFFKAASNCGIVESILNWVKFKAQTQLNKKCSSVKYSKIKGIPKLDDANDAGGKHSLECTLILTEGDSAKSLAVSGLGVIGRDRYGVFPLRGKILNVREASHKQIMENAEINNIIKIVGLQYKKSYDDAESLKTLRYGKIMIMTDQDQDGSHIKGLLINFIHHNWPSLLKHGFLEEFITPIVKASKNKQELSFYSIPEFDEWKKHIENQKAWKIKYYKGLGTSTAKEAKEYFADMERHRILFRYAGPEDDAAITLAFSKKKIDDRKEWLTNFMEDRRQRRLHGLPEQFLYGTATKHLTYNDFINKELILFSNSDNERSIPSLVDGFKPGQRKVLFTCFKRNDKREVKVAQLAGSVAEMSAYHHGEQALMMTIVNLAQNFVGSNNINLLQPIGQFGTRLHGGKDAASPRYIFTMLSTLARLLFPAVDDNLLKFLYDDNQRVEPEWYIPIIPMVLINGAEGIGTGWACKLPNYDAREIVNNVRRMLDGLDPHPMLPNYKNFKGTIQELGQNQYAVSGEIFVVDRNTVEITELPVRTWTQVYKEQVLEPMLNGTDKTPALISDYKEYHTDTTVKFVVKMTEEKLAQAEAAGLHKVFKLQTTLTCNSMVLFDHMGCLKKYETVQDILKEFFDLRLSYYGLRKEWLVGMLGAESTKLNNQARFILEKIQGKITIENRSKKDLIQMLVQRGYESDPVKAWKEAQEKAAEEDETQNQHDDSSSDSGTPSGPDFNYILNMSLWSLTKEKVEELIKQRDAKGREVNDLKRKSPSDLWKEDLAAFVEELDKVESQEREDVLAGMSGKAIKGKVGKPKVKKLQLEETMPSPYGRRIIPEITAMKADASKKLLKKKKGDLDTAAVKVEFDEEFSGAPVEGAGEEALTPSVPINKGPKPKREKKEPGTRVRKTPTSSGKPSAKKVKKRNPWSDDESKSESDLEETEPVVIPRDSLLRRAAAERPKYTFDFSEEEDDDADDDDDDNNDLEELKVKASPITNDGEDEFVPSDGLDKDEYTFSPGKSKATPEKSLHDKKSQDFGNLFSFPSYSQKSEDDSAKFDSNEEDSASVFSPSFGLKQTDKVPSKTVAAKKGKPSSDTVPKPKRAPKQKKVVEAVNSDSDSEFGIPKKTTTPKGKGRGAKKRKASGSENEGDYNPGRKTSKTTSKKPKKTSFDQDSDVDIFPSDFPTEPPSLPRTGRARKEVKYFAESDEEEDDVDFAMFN

Legend:
[1] = biological target: mEGFP-iso6 (FMRP nuclear isoform iso6 fused to GFP) (human) (UniProt Q06787); assay: affinity purification with mass spectrometry; first screen (mild stringency): GFP-Trap magnetic agarose on whole-cell lysate of U2OS stably expressing GFP-iso6, lysate treated with turbonuclease, 2 h at 4 C; LC-MS/MS; SAINTexpress against 2 GFP-free U2OS controls, <1% FDR and fold change >1.5
[2] = biological target: mEGFP-iso6 (FMRP nuclear isoform iso6 fused to GFP) (human) (UniProt Q06787); assay: affinity purification with mass spectrometry; stringent conditions: GFP-Trap on whole-cell lysate of U2OS stably expressing GFP-iso6 or GFP-iso1, half the number of cells of the first screen, 6 GFP-free U2OS controls, <=1% FDR; cells mock-treated or treated with aphidicolin (APH) for 24 h

| Molecule | binding [1] | binding [2] |
| --- | --- | --- |
| BRCA2 (from UniProt P51587 1-3418) | binds |  |
| ELAVL1 (from UniProt Q15717 1-326) | binds |  |
| POLR1A (from UniProt O95602 1-1720) | binds |  |
| POLR1E (from UniProt Q9GZS1 1-419) | binds |  |
| RCC1 (from UniProt P18754 1-421) | binds |  |
| SMARCA5 (from UniProt O60264 1-1052) | binds |  |
| SMARCD2 (from UniProt Q92925 1-531) | binds |  |
| SMARCE1 (from UniProt Q969G3 1-411) | binds |  |
| SRSF9 (from UniProt Q13242 1-221) | binds |  |
| SUPT16H (from UniProt Q9Y5B9 1-1047) | binds |  |
| TOP2B (from UniProt Q02880 1-1626) | binds |  |
| SRSF2 (protein, UniProt Q01130 1-221) MSYGRPPPDVEGMTSLKVDNLTYRTSPDTLRRVFEKYGRVGDVYIPRDRYTKESRGFAFVRFHDKRDAEDAMDAMDGAVLDGRELRVQMARYGRPPDSHHSRRGPPPRRYGGGGYGRRSRSPRRRRRSRSRSRSRSRSRSRSRYSRSKSRSRTRSRSRSTSKSRSARRSKSKSSSVSRSRSRSRSRSRSRSPPPVSKRESKSRSRSKSPPKSPEEEGAVSS | binds |  |
| DDX50 (protein, UniProt Q9BQ39 1-737) MPGKLLWGDIMELEAPLEESESQKKERQKSDRRKSRHHYDSDEKSETRENGVTDDLDAPKAKKSKMKEKLNGDTEEGFNRLSDEFSKSHKSRRKDLPNGDIDEYEKKSKRVSSLDTSTHKSSDNKLEETLTREQKEGAFSNFPISEETIKLLKGRGVTYLFPIQVKTFGPVYEGKDLIAQARTGTGKTFSFAIPLIERLQRNQETIKKSRSPKVLVLAPTRELANQVAKDFKDITRKLSVACFYGGTSYQSQINHIRNGIDILVGTPGRIKDHLQSGRLDLSKLRHVVLDEVDQMLDLGFAEQVEDIIHESYKTDSEDNPQTLLFSATCPQWVYKVAKKYMKSRYEQVDLVGKMTQKAATTVEHLAIQCHWSQRPAVIGDVLQVYSGSEGRAIIFCETKKNVTEMAMNPHIKQNAQCLHGDIAQSQREITLKGFREGSFKVLVATNVAARGLDIPEVDLVIQSSPPQDVESYIHRSGRTGRAGRTGICICFYQPRERGQLRYVEQKAGITFKRVGVPSTMDLVKSKSMDAIRSLASVSYAAVDFFRPSAQRLIEEKGAVDALAAALAHISGASSFEPRSLITSDKGFVTMTLESLEEIQDVSCAWKELNRKLSSNAVSQITRMCLLKGNMGVCFDVPTTESERLQAEWHDSDWILSVPAKLPEIEEYYDGNTSSNSRQRSGWSSGRSGRSGRSGGRSGGRSGRQSRQGSRSGSRQDGRRRSGNRNRSRSGGHKRSFD | binds |  |
| DDX52 (protein, UniProt Q9Y2R4 1-599) MDVHDLFRRLGAGAKFDTRRFSADAARFQIGKRKYDFDSSEVLQGLDFFGNKKSVPGVCGASQTHQKPQNGEKKEESLTERKREQSKKKRKTMTSEIASQEEGATIQWMSSVEAKIEDKKVQRESKLTSGKLENLRKEKINFLRNKHKIHVQGTDLPDPIATFQQLDQEYKINSRLLQNILDAGFQMPTPIQMQAIPVMLHGRELLASAPTGSGKTLAFSIPILMQLKQPANKGFRALIISPTRELASQIHRELIKISEGTGFRIHMIHKAAVAAKKFGPKSSKKFDILVTTPNRLIYLLKQDPPGIDLASVEWLVVDESDKLFEDGKTGFRDQLASIFLACTSHKVRRAMFSATFAYDVEQWCKLNLDNVISVSIGARNSAVETVEQELLFVGSETGKLLAVRELVKKGFNPPVLVFVQSIERAKELFHELIYEGINVDVIHAERTQQQRDNTVHSFRAGKIWVLICTALLARGIDFKGVNLVINYDFPTSSVEYIHRIGRTGRAGNKGKAITFFTEDDKPLLRSVANVIQQAGCPVPEYIKGFQKLLSKQKKKMIKKPLERESISTTPKCFLEKAKDKQKKVTGQNSKKKVALEDKS | binds |  |
| DDX51 (protein, UniProt Q8N8A6 1-666) MALFYVARYPGPDAAAAAGPEGAEAGAHGRARALLERLQSRARERQQQREPAQTEAAASTEPATRRRRRPRRRRRVNDAEPGSPEAPQGKRRKADGEDAGAESNEEAPGEPSAGSSEEAPGEPSAGSSEEAPGERSTSASAEAAPDGPALEEAAGPLVPGLVLGGFGKRKAPKVQPFLPRWLAEPNCVRRNVTEDLVPIEDIPDVHPDLQKQLRAHGISSYFPVQAAVIPALLESAACGFLVGRGGYRPSDLCVSAPTGSGKTLAFVIPVVQALLSRVVCHIRALVVLPTKELAQQVSKVFNIYTDATPLRVSLVTGQKSLAKEQESLVQKTADGYRCLADIVVATPGRLVDHIDQTPGFSLQQLRFLIIDEADRMIDSMHQSWLPRVVAAAFQSEDPADPCALLQRRQAQAVTAASTCCPQMPLQKLLFSATLTQNPEKLQQLGLHQPRLFSTGLAHRGLEDTDGDGDSGKYAFPVGLTHHYVPCSLSSKPLVVLHLVLEMGFSRVLCFTNSRENSHRLFLLVQAFGGVDVAEFSSRYGPGQRRMILKQFEQGKIQLLISTDATARGIDVQGVELVVNYDAPQYLRTYVHRVGRTARAGKTGQAFTLLLKVQERRFLRMLTEAGAPELQRHELSSKLLQPLVPRYEEALSQLEESVKEERKQRAA | binds |  |
| WDR46 (protein, UniProt O15213 1-610) METAPKPGKDVPPKKDKLQTKRKKPRRYWEEETVPTTAGASPGPPRNKKNRELRPQRPKNAYILKKSRISKKPQVPKKPREWKNPESQRGLSGTQDPFPGPAPVPVEVVQKFCRIDKSRKLPHSKAKTRSRLEVAEAEEEETSIKAARSELLLAEEPGFLEGEDGEDTAKICQADIVEAVDIASAAKHFDLNLRQFGPYRLNYSRTGRHLAFGGRRGHVAALDWVTKKLMCEINVMEAVRDIRFLHSEALLAVAQNRWLHIYDNQGIELHCIRRCDRVTRLEFLPFHFLLATASETGFLTYLDVSVGKIVAALNARAGRLDVMSQNPYNAVIHLGHSNGTVSLWSPAMKEPLAKILCHRGGVRAVAVDSTGTYMATSGLDHQLKIFDLRGTYQPLSTRTLPHGAGHLAFSQRGLLVAGMGDVVNIWAGQGKASPPSLEQPYLTHRLSGPVHGLQFCPFEDVLGVGHTGGITSMLVPGAGEPNFDGLESNPYRSRKQRQEWEVKALLEKVPAELICLDPRALAEVDVISLEQGKKEQIERLGYDPQAKAPFQPKPKQKGRSSTASLVKRKRKVMDEEHRDKVRQSLQQQHHKEAKAKPTGARPSALDRFVR | binds |  |
| NOP9 (protein, UniProt Q86U38 1-636) MGQGPRSPHKVGRRFPAGGKRGRGAKGSGRPLPGRKRQPWPPPDGRSEPAPDSHPHLSPEALGYFRRALSALKEAPETGEERDLMVHNIMKEVETQALALSTNRTGSEMLQELLGFSPLKPLCRVWAALRSNLRTVACHRCGVHVLQSALLQLPRLLGSAAEEEEEEEEDGKDGPTETLEELVLGLAAEVCDDFLVYCGDTHGSFVVRTLLQVLGGTILESERARPRGSQSSEAQKTPAQECKPADFEVPETFLNRLQDLSSSFLKDIAVFITDKISSFCLQVALQVLHRKLPQFCAHLCNAVIGYLSTRGSSVDGSPLLLFLRDQTSSRLLEQVLLVLEPPRLQSLFEEHLQGQLQTLAAHPIANFPLQRLLDAVTTPELLSPVFEELSPVLEAVLAQGHPGVVIALVGACRRVGAYQAKVLQLLLEAFHCAEPSSRQVACVPLFATLMAYEVYYGLTEEEGAVPAEHQVAMAAARALGDVTVLGSLLLQHLLHFSTPGLVLRSLGALTGPQLLSLAQSPAGSHVLDAILTSPSVTRKLRRRVLQNLKGQYVALACSRHGSRVLDAIWSGAALRARKEIAAELGEQNQELIRDPFGHHVARNVALTTFLKRREAWEQQQGAVAKRRRALNSILED | binds |  |
| SRSF7 (protein, UniProt Q16629 1-238) MSRYGRYGGETKVYVGNLGTGAGKGELERAFSYYGPLRTVWIARNPPGFAFVEFEDPRDAEDAVRGLDGKVICGSRVRVELSTGMPRRSRFDRPPARRPFDPNDRCYECGEKGHYAYDCHRYSRRRRSRSRSRSHSRSRGRRYSRSRSRSRGRRSRSASPRRSRSISLRRSRSASLRRSRSGSIKGSRYFQSPSRSRSRSRSISRPRSSRSKSRSPSPKRSRSPSGSPRRSASPERMD | binds |  |
| NOP16 (protein, UniProt Q9Y3C1 1-178) MPKAKGKTRRQKFGYSVNRKRLNRNARRKAAPRIECSHIRHAWDHAKSVRQNLAEMGLAVDPNRAVPLRKRKVKAMEVDIEERPKELVRKPYVLNDLEAEASLPEKKGNTLSRDLIDYVRYMVENHGEDYKAMARDEKNYYQDTPKQIRSKINVYKRFYPAEWQDFLDSLQKRKMEVE | binds |  |
| PPA2 (protein, UniProt Q9H2U2 33-334) ALYHTEERGQPCSQNYRLFFKNVTGHYISPFHDIPLKVNSKEENGIPMKKARNDEYENLFNMIVEIPRWTNAKMEIATKEPMNPIKQYVKDGKLRYVANIFPYKGYIWNYGTLPQTWEDPHEKDKSTNCFGDNDPIDVCEIGSKILSCGEVIHVKILGILALIDEGETDWKLIAINANDPEASKFHDIDDVKKFKPGYLEATLNWFRLYKVPDGKPENQFAFNGEFKNKAFALEVIKSTHQCWKALLMKKCNGGAINCTNVQISDSPFRCTQEEARSLVESVSSSPNKESNEEEQVWHFLGK |  | binds |
